This note sets out measurements from doi:10.1101/2022.02.02.478874.

This experiment addresses Dynactin pointed end (PE) complex (p25, p27, p62, Arp11) (UniProt Q9BTE1). Put plainly: SEC. (In gel filtration, larger molecules generally elute earlier.)

No constants are given. Whether binding was seen depends on the method and setting. Some binding calls cover weakened binding; strength is not graded here. Where a sequence is shown, tags or fusion partners need not be part of it.

B1: Spindly^1-354 (domain or fragment, UniProt Q96EA4 1-354)
chain: MEADIITNLRCRLKEAEEERLKAAQYGLQLVESQNELQNQLDKCRNEMMTMTESYEQEKYTLQREVELKSRMLESLSCECEAIKQQQKMHLEKLEEQLSRSHGQEVNELKTKIEKLKVELDEARLSEKQLKHQVDHQKELLSCKSEELRVMSERVQESMSSEMLALQIELTEMESMKTTLKEEVNELQYRQEQLELLITNLMRQVDRLKEEKEEREKEAVSYYNALEKARVANQDLQVQLDQALQQALDPNSKGNSLFAEVEDRRAAMERQLISMKVKYQSLKKQNVFNREQMQRMKLQIATLLQMKGSQTEFEQQERLLAMLEQKNGEIKHLLGEIRNLEKFKNLYDSMESKP
On to B1, for which the binding entry is listed as “no binding”.

B2: ^mChSpindly^33-605 (domain or fragment, UniProt Q96EA4 33-605)
chain: SQNELQNQLDKCRNEMMTMTESYEQEKYTLQREVELKSRMLESLSCECEAIKQQQKMHLEKLEEQLSRSHGQEVNELKTKIEKLKVELDEARLSEKQLKHQVDHQKELLSCKSEELRVMSERVQESMSSEMLALQIELTEMESMKTTLKEEVNELQYRQEQLELLITNLMRQVDRLKEEKEEREKEAVSYYNALEKARVANQDLQVQLDQALQQALDPNSKGNSLFAEVEDRRAAMERQLISMKVKYQSLKKQNVFNREQMQRMKLQIATLLQMKGSQTEFEQQERLLAMLEQKNGEIKHLLGEIRNLEKFKNLYDSMESKPSVDSGTLEDNTYYTDLLQMKLDNLNKEIESTKGELSIQRMKALFESQRALDIERKLFANERCLQLSESENMKLRAKLDELKLKYEPEETVEVPVLKKRREVLPVDITTAKDACVNNSALGGEVYRLPPQKEETQSCPNSLEDNNLQLEKSVSIYTPVVSLSPHKNLPVDMQLKKEKKCVKLIGVPADAEALSERSGNTPNSPRLAAESKLQTEVKEGKETSSKLEKETCKKLHPILYVSSKSTPETQCPQQ
As to B2, the binding entry was “binds”.

B3: ^mChSpindly^Δ26-32 (protein, UniProt Q96EA4)
chain: MEADIITNLRCRLKEAEEERLKAAQSQNELQNQLDKCRNEMMTMTESYEQEKYTLQREVELKSRMLESLSCECEAIKQQQKMHLEKLEEQLSRSHGQEVNELKTKIEKLKVELDEARLSEKQLKHQVDHQKELLSCKSEELRVMSERVQESMSSEMLALQIELTEMESMKTTLKEEVNELQYRQEQLELLITNLMRQVDRLKEEKEEREKEAVSYYNALEKARVANQDLQVQLDQALQQALDPNSKGNSLFAEVEDRRAAMERQLISMKVKYQSLKKQNVFNREQMQRMKLQIATLLQMKGSQTEFEQQERLLAMLEQKNGEIKHLLGEIRNLEKFKNLYDSMESKPSVDSGTLEDNTYYTDLLQMKLDNLNKEIESTKGELSIQRMKALFESQRALDIERKLFANERCLQLSESENMKLRAKLDELKLKYEPEETVEVPVLKKRREVLPVDITTAKDACVNNSALGGEVYRLPPQKEETQSCPNSLEDNNLQLEKSVSIYTPVVSLSPHKNLPVDMQLKKEKKCVKLIGVPADAEALSERSGNTPNSPRLAAESKLQTEVKEGKETSSKLEKETCKKLHPILYVSSKSTPETQCPQQ
For the molecule B3, the binding entry was “binds weakly”.

B4: ^mChSpindly^76-605 (domain or fragment, UniProt Q96EA4 76-605)
chain: LSCECEAIKQQQKMHLEKLEEQLSRSHGQEVNELKTKIEKLKVELDEARLSEKQLKHQVDHQKELLSCKSEELRVMSERVQESMSSEMLALQIELTEMESMKTTLKEEVNELQYRQEQLELLITNLMRQVDRLKEEKEEREKEAVSYYNALEKARVANQDLQVQLDQALQQALDPNSKGNSLFAEVEDRRAAMERQLISMKVKYQSLKKQNVFNREQMQRMKLQIATLLQMKGSQTEFEQQERLLAMLEQKNGEIKHLLGEIRNLEKFKNLYDSMESKPSVDSGTLEDNTYYTDLLQMKLDNLNKEIESTKGELSIQRMKALFESQRALDIERKLFANERCLQLSESENMKLRAKLDELKLKYEPEETVEVPVLKKRREVLPVDITTAKDACVNNSALGGEVYRLPPQKEETQSCPNSLEDNNLQLEKSVSIYTPVVSLSPHKNLPVDMQLKKEKKCVKLIGVPADAEALSERSGNTPNSPRLAAESKLQTEVKEGKETSSKLEKETCKKLHPILYVSSKSTPETQCPQQ
Consider B4, for which the binding result is “binds”.

B5: Spindly^1-275 (domain or fragment, UniProt Q96EA4 1-275)
chain: MEADIITNLRCRLKEAEEERLKAAQYGLQLVESQNELQNQLDKCRNEMMTMTESYEQEKYTLQREVELKSRMLESLSCECEAIKQQQKMHLEKLEEQLSRSHGQEVNELKTKIEKLKVELDEARLSEKQLKHQVDHQKELLSCKSEELRVMSERVQESMSSEMLALQIELTEMESMKTTLKEEVNELQYRQEQLELLITNLMRQVDRLKEEKEEREKEAVSYYNALEKARVANQDLQVQLDQALQQALDPNSKGNSLFAEVEDRRAAMERQLISM
For B5, the binding entry was “binds”.

B6: ^mChSpindly^22-605 (domain or fragment, UniProt Q96EA4 22-605)
chain: KAAQYGLQLVESQNELQNQLDKCRNEMMTMTESYEQEKYTLQREVELKSRMLESLSCECEAIKQQQKMHLEKLEEQLSRSHGQEVNELKTKIEKLKVELDEARLSEKQLKHQVDHQKELLSCKSEELRVMSERVQESMSSEMLALQIELTEMESMKTTLKEEVNELQYRQEQLELLITNLMRQVDRLKEEKEEREKEAVSYYNALEKARVANQDLQVQLDQALQQALDPNSKGNSLFAEVEDRRAAMERQLISMKVKYQSLKKQNVFNREQMQRMKLQIATLLQMKGSQTEFEQQERLLAMLEQKNGEIKHLLGEIRNLEKFKNLYDSMESKPSVDSGTLEDNTYYTDLLQMKLDNLNKEIESTKGELSIQRMKALFESQRALDIERKLFANERCLQLSESENMKLRAKLDELKLKYEPEETVEVPVLKKRREVLPVDITTAKDACVNNSALGGEVYRLPPQKEETQSCPNSLEDNNLQLEKSVSIYTPVVSLSPHKNLPVDMQLKKEKKCVKLIGVPADAEALSERSGNTPNSPRLAAESKLQTEVKEGKETSSKLEKETCKKLHPILYVSSKSTPETQCPQQ
Take B6: the binding entry was “no binding”.

B7: ^mChSpindly^Δ276-306 (protein, UniProt Q96EA4)
chain: MEADIITNLRCRLKEAEEERLKAAQYGLQLVESQNELQNQLDKCRNEMMTMTESYEQEKYTLQREVELKSRMLESLSCECEAIKQQQKMHLEKLEEQLSRSHGQEVNELKTKIEKLKVELDEARLSEKQLKHQVDHQKELLSCKSEELRVMSERVQESMSSEMLALQIELTEMESMKTTLKEEVNELQYRQEQLELLITNLMRQVDRLKEEKEEREKEAVSYYNALEKARVANQDLQVQLDQALQQALDPNSKGNSLFAEVEDRRAAMERQLISMKGSQTEFEQQERLLAMLEQKNGEIKHLLGEIRNLEKFKNLYDSMESKPSVDSGTLEDNTYYTDLLQMKLDNLNKEIESTKGELSIQRMKALFESQRALDIERKLFANERCLQLSESENMKLRAKLDELKLKYEPEETVEVPVLKKRREVLPVDITTAKDACVNNSALGGEVYRLPPQKEETQSCPNSLEDNNLQLEKSVSIYTPVVSLSPHKNLPVDMQLKKEKKCVKLIGVPADAEALSERSGNTPNSPRLAAESKLQTEVKEGKETSSKLEKETCKKLHPILYVSSKSTPETQCPQQ
In the case of B7, the binding entry is listed as “binds”.

B8: ^mChSpindly^ΔRV (protein, UniProt Q96EA4 1-605)
chain: MEADIITNLRCRLKEAEEERLKAAQYGLQLVESQNELQNQLDKCRNEMMTMTESYEQEKYTLQREVELKSRMLESLSCECEAIKQQQKMHLEKLEEQLSRSHGQEVNELKTKIEKLKVELDEARLSEKQLKHQVDHQKELLSCKSEELRVMSEQESMSSEMLALQIELTEMESMKTTLKEEVNELQYRQEQLELLITNLMRQVDRLKEEKEEREKEAVSYYNALEKARVANQDLQVQLDQALQQALDPNSKGNSLFAEVEDRRAAMERQLISMKVKYQSLKKQNVFNREQMQRMKLQIATLLQMKGSQTEFEQQERLLAMLEQKNGEIKHLLGEIRNLEKFKNLYDSMESKPSVDSGTLEDNTYYTDLLQMKLDNLNKEIESTKGELSIQRMKALFESQRALDIERKLFANERCLQLSESENMKLRAKLDELKLKYEPEETVEVPVLKKRREVLPVDITTAKDACVNNSALGGEVYRLPPQKEETQSCPNSLEDNNLQLEKSVSIYTPVVSLSPHKNLPVDMQLKKEKKCVKLIGVPADAEALSERSGNTPNSPRLAAESKLQTEVKEGKETSSKLEKETCKKLHPILYVSSKSTPETQCPQQ
Turning to B8, the binding result is given as “binds”.

B9: Spindly^156-275 (domain or fragment, UniProt Q96EA4 156-275)
chain: QESMSSEMLALQIELTEMESMKTTLKEEVNELQYRQEQLELLITNLMRQVDRLKEEKEEREKEAVSYYNALEKARVANQDLQVQLDQALQQALDPNSKGNSLFAEVEDRRAAMERQLISM
Turning to B9, the binding entry is on record as “binds”.

B10: ^mChSpindly^CC2* (R295E-K297E) (protein, UniProt Q96EA4 1-605)
chain: MEADIITNLRCRLKEAEEERLKAAQYGLQLVESQNELQNQLDKCRNEMMTMTESYEQEKYTLQREVELKSRMLESLSCECEAIKQQQKMHLEKLEEQLSRSHGQEVNELKTKIEKLKVELDEARLSEKQLKHQVDHQKELLSCKSEELRVMSERVQESMSSEMLALQIELTEMESMKTTLKEEVNELQYRQEQLELLITNLMRQVDRLKEEKEEREKEAVSYYNALEKARVANQDLQVQLDQALQQALDPNSKGNSLFAEVEDRRAAMERQLISMKVKYQSLKKQNVFNREQMQEMELQIATLLQMKGSQTEFEQQERLLAMLEQKNGEIKHLLGEIRNLEKFKNLYDSMESKPSVDSGTLEDNTYYTDLLQMKLDNLNKEIESTKGELSIQRMKALFESQRALDIERKLFANERCLQLSESENMKLRAKLDELKLKYEPEETVEVPVLKKRREVLPVDITTAKDACVNNSALGGEVYRLPPQKEETQSCPNSLEDNNLQLEKSVSIYTPVVSLSPHKNLPVDMQLKKEKKCVKLIGVPADAEALSERSGNTPNSPRLAAESKLQTEVKEGKETSSKLEKETCKKLHPILYVSSKSTPETQCPQQ
For B10, the binding result was “binds”.

B11: GST-Spindly^CC2* (protein, UniProt Q96EA4 1-605)
chain: MEADIITNLRCRLKEAEEERLKAAQYGLQLVESQNELQNQLDKCRNEMMTMTESYEQEKYTLQREVELKSRMLESLSCECEAIKQQQKMHLEKLEEQLSRSHGQEVNELKTKIEKLKVELDEARLSEKQLKHQVDHQKELLSCKSEELRVMSERVQESMSSEMLALQIELTEMESMKTTLKEEVNELQYRQEQLELLITNLMRQVDRLKEEKEEREKEAVSYYNALEKARVANQDLQVQLDQALQQALDPNSKGNSLFAEVEDRRAAMERQLISMKVKYQSLKKQNVFNREQMQEMELQIATLLQMKGSQTEFEQQERLLAMLEQKNGEIKHLLGEIRNLEKFKNLYDSMESKPSVDSGTLEDNTYYTDLLQMKLDNLNKEIESTKGELSIQRMKALFESQRALDIERKLFANERCLQLSESENMKLRAKLDELKLKYEPEETVEVPVLKKRREVLPVDITTAKDACVNNSALGGEVYRLPPQKEETQSCPNSLEDNNLQLEKSVSIYTPVVSLSPHKNLPVDMQLKKEKKCVKLIGVPADAEALSERSGNTPNSPRLAAESKLQTEVKEGKETSSKLEKETCKKLHPILYVSSKSTPETQCPQQ
Consider B11, for which the binding entry is “binds”.
